Laboratory results published in patent US20080299108A1, “Peptides for Diagnostic and Therapeutic Methods for Celiac Sprue” (priority 2005, published 2008).
Some results were stated once for a whole list of compounds, not compound by compound. Not every detail of the peptide structures is certain; ends, links or a residue may be inferred.

System: BBM prepared from human intestinal biopsies
Assay: Digestion with BBM preparations from human intestinal biopsies
Details: 100 μM peptide, human BBM (aminopeptidase N 13 μU/μl), 37° C.

Row | Sequence | time to complete proteolysis [h]
1 | WQIPEQSR | 1 to 5
2 | QLQPFPQPQLPY | 1 to 5
